Experiment [1] concerns the target miniTurbo-V5-casein kinase 1γ1 (mT-V5-CK1γ1) (human) (UniProt Q9HCP0). Put plainly: proximity labelling; HEK293T cells stably expressing mT-V5-CK1γ, 50 mM biotin (Fig. 1F: biotin and WNT3A CM for 30 min), RIPA lysis, streptavidin affinity pulldown 1 h at 4 °C, Western blot of the biotinylated proteins. For orientation: A western blot detects proteins with antibodies after separation by electrophoresis.

Amino acid sequences for entries named in this document (tags omitted).
UniProt Q9HCP0: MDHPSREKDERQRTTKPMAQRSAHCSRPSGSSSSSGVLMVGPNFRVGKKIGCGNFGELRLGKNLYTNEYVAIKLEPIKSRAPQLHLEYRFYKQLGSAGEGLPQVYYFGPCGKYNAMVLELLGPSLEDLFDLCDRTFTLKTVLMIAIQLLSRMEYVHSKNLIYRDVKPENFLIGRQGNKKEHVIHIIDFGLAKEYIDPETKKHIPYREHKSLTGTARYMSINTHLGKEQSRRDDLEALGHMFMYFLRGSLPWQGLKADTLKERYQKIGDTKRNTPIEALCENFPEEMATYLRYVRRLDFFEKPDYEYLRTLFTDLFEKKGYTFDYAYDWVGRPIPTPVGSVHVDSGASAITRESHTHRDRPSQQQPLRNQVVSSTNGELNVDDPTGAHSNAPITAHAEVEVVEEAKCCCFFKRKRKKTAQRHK
UniProt P78368: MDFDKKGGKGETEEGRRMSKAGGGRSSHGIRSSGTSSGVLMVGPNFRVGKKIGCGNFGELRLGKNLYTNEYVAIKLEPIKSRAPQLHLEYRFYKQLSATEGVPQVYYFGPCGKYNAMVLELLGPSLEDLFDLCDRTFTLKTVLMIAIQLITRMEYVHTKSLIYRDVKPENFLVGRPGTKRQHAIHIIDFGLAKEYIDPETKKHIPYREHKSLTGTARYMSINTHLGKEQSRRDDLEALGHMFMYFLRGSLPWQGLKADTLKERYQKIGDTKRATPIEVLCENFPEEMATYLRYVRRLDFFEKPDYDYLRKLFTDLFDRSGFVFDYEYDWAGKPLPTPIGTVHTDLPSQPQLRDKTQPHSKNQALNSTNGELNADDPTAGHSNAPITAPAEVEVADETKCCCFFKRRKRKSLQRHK
UniProt Q9Y6M4: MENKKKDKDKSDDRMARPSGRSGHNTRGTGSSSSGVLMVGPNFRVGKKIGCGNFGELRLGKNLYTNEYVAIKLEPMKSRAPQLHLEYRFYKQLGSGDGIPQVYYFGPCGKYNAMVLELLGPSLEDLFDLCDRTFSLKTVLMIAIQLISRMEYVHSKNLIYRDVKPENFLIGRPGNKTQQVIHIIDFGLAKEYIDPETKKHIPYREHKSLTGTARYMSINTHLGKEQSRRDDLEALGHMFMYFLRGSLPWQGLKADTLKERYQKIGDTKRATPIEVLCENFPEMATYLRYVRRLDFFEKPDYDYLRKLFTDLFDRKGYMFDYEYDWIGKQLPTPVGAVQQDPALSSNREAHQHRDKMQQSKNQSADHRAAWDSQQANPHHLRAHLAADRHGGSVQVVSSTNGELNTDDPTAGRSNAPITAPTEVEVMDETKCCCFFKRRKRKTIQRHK

For experiment [2], the target named is miniTurbo-V5-casein kinase 1γ2 (mT-V5-CK1γ2) (human) (UniProt P78368). The description is as above.
The target in experiment [3] is miniTurbo-V5-casein kinase 1γ3 (mT-V5-CK1γ3) (human) (UniProt Q9Y6M4). The experiment is described as above.
Experiment [4] has the same target. The experiment in a line: proximity labelling; as the 30 min experiment but 120 min of biotin treatment; streptavidin affinity purification and mass spectrometry, SAINT scored separately.

No constants are given. Whether binding was seen depends on the method and setting. In cells and extracts the contact can be indirect. A yes stands for co-enrichment or nearness to the bait. Other partners may have been found.

B1: prickle planar cell polarity protein 1 (protein, UniProt Q96MT3 1-831)
chain: MPLEMEPKMSKLAFGCQRSSTSDDDSGCALEEYAWVPPGLRPEQIQLYFACLPEEKVPYVNSPGEKHRIKQLLYQLPPHDNEVRYCQSLSEEEKKELQVFSAQRKKEALGRGTIKLLSRAVMHAVCEQCGLKINGGEVAVFASRAGPGVCWHPSCFVCFTCNELLVDLIYFYQDGKIHCGRHHAELLKPRCSACDEIIFADECTEAEGRHWHMKHFCCLECETVLGGQRYIMKDGRPFCCGCFESLYAEYCETCGEHIGVDHAQMTYDGQHWHATEACFSCAQCKASLLGCPFLPKQGQIYCSKTCSLGEDVHASDSSDSAFQSARSRDSRRSVRMGKSSRSADQCRQSLLLSPALNYKFPGLSGNADDTLSRKLDDLSLSRQGTSFASEEFWKGRVEQETPEDPEEWADHEDYMTQLLLKFGDKSLFQPQPNEMDIRASEHWISDNMVKSKTELKQNNQSLASKKYQSDMYWAQSQDGLGDSAYGSHPGPASSRRLQELELDHGASGYNHDETQWYEDSLECLSDLKPEQSVRDSMDSLALSNITGASVDGENKPRPSLYSLQNFEEMETEDCEKMSNMGTLNSSMLHRSAESLKSLSSELCPEKILPEEKPVHLPVLRRSKSQSRPQQVKFSDDVIDNGNYDIEIRQPPMSERTRRRVYNFEERGSRSHHHRRRRSRKSRSDNALNLVTERKYSPKDRLRLYTPDNYEKFIQNKSAREIQAYIQNADLYGQYAHATSDYGLQNPGMNRFLGLYGEDDDSWCSSSSSSSDSEEEGYFLGQPIPQPRPQRFAYYTDDLSSPPSALPTPQFGQRTTKSKKKKGHKGKNCIIS
On to B1, for which the binding entry in experiment [1], in experiment [2] and in experiment [3] was “binds” throughout.

B2: FZD3 (receptor, UniProt Q9NPG1 23-666)
chain: HSLFSCEPITLRMCQDLPYNTTFMPNLLNHYDQQTAALAMEPFHPMVNLDCSRDFRPFLCALYAPICMEYGRVTLPCRRLCQRAYSECSKLMEMFGVPWPEDMECSRFPDCDEPYPRLVDLNLAGEPTEGAPVAVQRDYGFWCPRELKIDPDLGYSFLHVRDCSPPCPNMYFRREELSFARYFIGLISIICLSATLFTFLTFLIDVTRFRYPERPIIFYAVCYMMVSLIFFIGFLLEDRVACNASIPAQYKASTVTQGSHNKACTMLFMILYFFTMAGSVWWVILTITWFLAAVPKWGSEAIEKKALLFHASAWGIPGTLTIILLAMNKIEGDNISGVCFVGLYDVDALRYFVLAPLCLYVVVGVSLLLAGIISLNRVRIEIPLEKENQDKLVKFMIRIGVFSILYLVPLLVVIGCYFYEQAYRGIWETTWIQERCREYHIPCPYQVTQMSRPDLILFLMKYLMALIVGIPSVFWVGSKKTCFEWASFFHGRRKKEIVNESRQVLQEPDFAQSLLRDPNTPIIRKSRGTSTQGTSTHASSTQLAMVDDQRSKAGSIHSKVSSYHGSLHRSRDGRYTPCSYRGMEERLPHGSMSRLTDHSRHSSSHRLNEQSRHSSIRDLSNNPMTHITHGTSMNRVIEEDGTSA
Turning to B2, in experiment [4], the binding entry is “binds”.

The record behind these values is PMC9157009, “Protein proximity networks and functional evaluation of the casein kinase 1 gamma family reveal unique roles for CK1γ3 in WNT signaling” (The Journal of Biological Chemistry, 2022).
